Data as given in PubChem BioAssay AID1508597 (Cure First, 2020).
Shown is an unselected part of the about 2,100 reagents, under one of the conditions tested. 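Calls flag viability under 80% in either arm, not effects specific to rucaparib; the reference for percent is not stated.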 A reagent listed more than once was tested more than once; the source does not tell the runs apart. Not stated in the record: the 100% reference.

- Aim: 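Survival screen with siRNA in ovarian cancer cells derived from patients, with or without rucaparib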 (primary screen)
- System: human ovarian carcinoma lines grown from tumours: OCI-P5x (papillary serous) and OCI-C5x (clear cell)
- Reagents: siRNA pool against human genes, 1.25 pmol siRNA per well
- Time to read-out: 72 h or 96 h, depending on the cell culture
- Challenge: rucaparib 20 µM (about IC30) or vehicle, present until read-out
- Rucaparib or vehicle: Rucaparib
- Cell line: OCI-P5x (serous)
- Detection: 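ATP luminescence measured at 72 or 96 h according to the culture, then normalised and expressed as percent viability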
- Direction: viability, normalised: higher = more viable cells remaining
- Rule for the call: 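a well counts as a hit if its normalised viability is under 80 percent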
- Meaning of the calls: active = viability under 80%; inactive = viability 80% or more

gene | PubChem SID | technical replicate | viability, normalised (%) | Outcome
ULK4 | SID405527692 | 1 | 67 | active
ULK4 | SID405527692 | 2 | 84.7 | inactive
ULK4 | SID405527692 | 3 | 69.5 | active
ARL8B | SID405527983 | 1 | 67.9 | active
ARL8B | SID405527983 | 2 | 77.7 | active
ARL8B | SID405527983 | 3 | 79 | active
GPX1 | SID405526826 | 1 | 50.9 | active
GPX1 | SID405526826 | 2 | 81.2 | inactive
GPX1 | SID405526826 | 3 | 58.8 | active
CHD8 | SID405528107 | 1 | 87.7 | inactive
CHD8 | SID405528107 | 2 | 77.9 | active
CHD8 | SID405528107 | 3 | 75.4 | active
ABL2 | SID405527799 | 1 | 113 | inactive
ABL2 | SID405527799 | 2 | 107 | inactive
ABL2 | SID405527799 | 3 | 96.1 | inactive
MED11 | SID405526986 | 1 | 39.1 | active
MED11 | SID405526986 | 2 | 43.8 | active
MED11 | SID405526986 | 3 | 58.9 | active
PDE10A | SID405526680 | 1 | 50.4 | active
PDE10A | SID405526680 | 2 | 64.7 | active
PDE10A | SID405526680 | 3 | 64.9 | active
EPHA7 | SID405527455 | 1 | 97.5 | inactive
EPHA7 | SID405527455 | 2 | 87.6 | inactive
EPHA7 | SID405527455 | 3 | 86.8 | inactive
MUS81 | SID405528435 | 1 | 111 | inactive
MUS81 | SID405528435 | 2 | 82.3 | inactive
MUS81 | SID405528435 | 3 | 64.6 | active
GRK2 | SID405527822 | 1 | 82 | inactive
GRK2 | SID405527822 | 2 | 82.1 | inactive
GRK2 | SID405527822 | 3 | 46 | active
MED23 | SID405526998 | 1 | 45 | active
MED23 | SID405526998 | 2 | 44.5 | active
MED23 | SID405526998 | 3 | 45.4 | active
ACTR6 | SID405527949 | 1 | 82.9 | inactive
ACTR6 | SID405527949 | 2 | 81.6 | inactive
ACTR6 | SID405527949 | 3 | 78.5 | active
L3MBTL2 | SID405526949 | 1 | 62.3 | active
L3MBTL2 | SID405526949 | 2 | 69.1 | active
L3MBTL2 | SID405526949 | 3 | 63.3 | active
DHX40 | SID405528220 | 1 | 43.3 | active
DHX40 | SID405528220 | 2 | 44.3 | active
DHX40 | SID405528220 | 3 | 41.4 | active
MAST4 | SID405528544 | 1 | 86 | inactive
MAST4 | SID405528544 | 2 | 73.9 | active
MAST4 | SID405528544 | 3 | 80.9 | inactive
INO80C | SID405526903 | 1 | 56 | active
INO80C | SID405526903 | 2 | 54.6 | active
INO80C | SID405526903 | 3 | 66.3 | active
KPNA1 | SID405528353 | 1 | 66.3 | active
KPNA1 | SID405528353 | 2 | 74.1 | active
KPNA1 | SID405528353 | 3 | 95.5 | inactive
NFRKB | SID405527070 | 1 | 48.7 | active
NFRKB | SID405527070 | 2 | 63 | active
NFRKB | SID405527070 | 3 | 64.2 | active
ERCC1 | SID405526761 | 1 | 66 | active
ERCC1 | SID405526761 | 1 | 52.7 | active
ERCC1 | SID405526761 | 2 | 76.3 | active
ERCC1 | SID405526761 | 2 | 46.9 | active
ERCC1 | SID405526761 | 3 | 64 | active
ERCC1 | SID405526761 | 3 | 59.9 | active
